# In article doi:10.1101/2025.11.06.685569:
# These are yes or no findings as the source states them, for the method shown. Sequences can lack the tags named with a protein.
# B1: FLAG-tagged Atg23 (protein, UniProt Q06671 1-453)
# chain: MELNQVLEKKEQILQYLGTLVGLHEKALSDVNSASQVTSIRKDITICLNDLCRINDLLVSHDGLLKREIGSLLRDKQELLELNEREQLLWKERKSWHIKQETDAAPADYVIDKDAIITISSHHRTSLNKYIESVGAENTILSNTDDSDAMIEEVQNAESSADQMIRNYKLLQLSHKQAKSEIIRLETLLRDFKKDNKFIEEELKRQSGRIRSEMGNIDFHLSKIEESKHQLMKRIGFESPLTQEKSLSEKIFNLRLSSADEDYNERQTINMKNFVHMKDLIELKIEDLQEQLMRNKNESSTVLTQRELWLDCQKKVGDLESKLITKLRSSSNSKIPPNEMSEMINSTIQYLNNLLDSSDEKLTTTLISNERDVLSKACEELHSESTTAQDGSSALPSKPIDIHKSHKGSNASSNLKQPSTPSFLVASKSPPKIGISESVVNANKNDAISKKVE
# B2: SUMO*-Atg27^CTR-StrepII^2x (domain or fragment, UniProt P46989 223-271)
# chain: TRGGSFQDFRAEFIQRSTQFLTSLPEFCKEVVSRILGRSTAQRGGYSAV
# Legend:
# [1] = target: T1, Myc-Atg9^CTR_758-938-StrepII^2X (S. cerevisiae) (UniProt Q12142); experiment: pull-down
# T1 sequence: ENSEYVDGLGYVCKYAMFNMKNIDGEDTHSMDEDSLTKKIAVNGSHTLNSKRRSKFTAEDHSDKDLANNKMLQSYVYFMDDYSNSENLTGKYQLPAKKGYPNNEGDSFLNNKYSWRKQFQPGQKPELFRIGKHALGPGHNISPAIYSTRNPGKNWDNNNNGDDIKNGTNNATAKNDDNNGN
# [2] = target: T2, FLAG-tagged Atg23 (S. cerevisiae) (UniProt Q06671); experiment: pull-down
# T2 sequence: B1 chain
Binder,binding [1],binding [2]
B1,no binding,–
B2,–,no binding
